PubChem BioAssay AID1259308, NCATS – 2017
Screen: 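Candidate targets for better recombinant protein yield in mammalian cells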 (primary screen). Cells: human HEK293 embryonic kidney cells stably expressing firefly luciferase (HEK-CMV-Luc2-Hygro). Reagents: single siRNA against human genes, 0.8 pmol siRNA per well. Duration: 72 h. Detection: 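Reporter luminescence and viable-cell signal on separate replicate plates, given as percent of non-targeting control and median/MAD z-scores, plus per-cell luciferase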. Reading the numbers: total luciferase, z-score: higher = more reporter protein produced. Hit rule: 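Active when the median/MAD z-score for overall luciferase is greater than 3; a gene was taken forward for validation with new siRNAs if at least two of its three siRNAs passed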. Calls: active = raised luciferase; inactive = no rise.
Shown is an unselected part of about 59,000 deposited reagents. About 1,510 of them (2.6%) count as active. 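Calls use total luciferase alone and ignore viability, so some active siRNAs may act by altering cell number.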 Reagents against one gene are numbered here. Not all columns of the deposit are shown.

| gene symbol | siRNA no. | total luciferase, z-score | Outcome |
| --- | --- | --- | --- |
| TRIM74 (GeneID 378108) | 1 | 2.71 | inactive |
| TRIM74 (GeneID 378108) | 2 | -0.461 | inactive |
| TRIM74 (GeneID 378108) | 3 | 1.19 | inactive |
| RUSF1 (GeneID 64755) | 1 | -1.1 | inactive |
| RUSF1 (GeneID 64755) | 2 | -0.64 | inactive |
| RUSF1 (GeneID 64755) | 3 | 0.409 | inactive |
| LOC729722 (retired record) (GeneID 729722) | 1 | 0.315 | inactive |
| LOC729722 (retired record) (GeneID 729722) | 2 | -1.29 | inactive |
| LOC729722 (retired record) (GeneID 729722) | 3 | 3.44 | active |

Already shown: entries from further up.
| gene symbol | siRNA no. | total luciferase, z-score | Outcome |
| --- | --- | --- | --- |
| RUSF1 (GeneID 64755) | 1 | -1.1 | inactive |
| RUSF1 (GeneID 64755) | 2 | -0.64 | inactive |

Next results:
| gene symbol | siRNA no. | total luciferase, z-score | Outcome |
| --- | --- | --- | --- |
| HCAR1 (GeneID 27198) | 1 | 0.387 | inactive |
| HCAR1 (GeneID 27198) | 2 | 0.989 | inactive |
| HCAR1 (GeneID 27198) | 3 | 0.818 | inactive |
| MLIP (GeneID 90523) | 1 | -0.198 | inactive |
| MLIP (GeneID 90523) | 2 | -0.0123 | inactive |
| MLIP (GeneID 90523) | 3 | -0.809 | inactive |
| RAB1A (GeneID 5861) | 1 | -0.683 | inactive |
| RAB1A (GeneID 5861) | 2 | -0.862 | inactive |
| RAB1A (GeneID 5861) | 3 | 0.432 | inactive |
| ARL6IP1 (GeneID 23204) | 1 | -2.02 | inactive |
| ARL6IP1 (GeneID 23204) | 2 | -1.7 | inactive |
| ARL6IP1 (GeneID 23204) | 3 | -1.73 | inactive |
| OR6B1 (GeneID 135946) | 1 | 0.124 | inactive |
| OR6B1 (GeneID 135946) | 2 | 0.0313 | inactive |
| OR6B1 (GeneID 135946) | 3 | 0.693 | inactive |
